{"source": "PubChem BioAssay AID1259425 (University of Nebraska Medical Center, 2018)", "screen": "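Seek colon cancer weak points whose silencing resembles KSR1 loss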 (primary screen)", "system": "HCT116 human colon cancer cells", "knock-down reagent": "siRNA pool against human genes, 50 nM siRNA", "measured": "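After 50 nM siRNA pool, branched-DNA assay measures six marker transcripts per well, minus blank, normalised to the geometric mean of two housekeeping transcripts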", "direction": "BNIP3L mRNA: higher = more BNIP3L transcript after knockdown; NDRG1 mRNA: higher = more NDRG1 transcript after knockdown", "note": "Shown is one part, drawn at random, of about 14,000 reagents. Further read-outs or replicates are left out here. Reagent sequences are not shown. Not given: the time to read-out."}
{"gene knocked down":"ASB3 (ankyrin repeat and SOCS box containing 3)","BNIP3L mRNA, set 1":0.137,"NDRG1 mRNA, set 1":0.323}
{"gene knocked down":"TNS4 (tensin 4)","BNIP3L mRNA, set 1":0.173,"NDRG1 mRNA, set 1":0.193}
{"gene knocked down":"CHRNA9 (cholinergic receptor nicotinic alpha 9 subunit)","BNIP3L mRNA, set 1":0.0695,"NDRG1 mRNA, set 1":0.105}
{"gene knocked down":"GDF11 (growth differentiation factor 11)","BNIP3L mRNA, set 1":0.1,"NDRG1 mRNA, set 1":0.356}
{"gene knocked down":"KMT2E (lysine methyltransferase 2E (inactive))","BNIP3L mRNA, set 1":0.0955,"NDRG1 mRNA, set 1":0.171}
{"gene knocked down":"SERTAD4 (SERTA domain containing 4)","BNIP3L mRNA, set 1":0.0895,"NDRG1 mRNA, set 1":0.183}
{"gene knocked down":"INTS7 (integrator complex subunit 7)","BNIP3L mRNA, set 1":0.0741,"NDRG1 mRNA, set 1":1.1}
{"gene knocked down":"HNRNPH2 (heterogeneous nuclear ribonucleoprotein H2)","BNIP3L mRNA, set 1":0.128,"NDRG1 mRNA, set 1":0.447}
{"gene knocked down":"CCDC136 (coiled-coil domain containing 136)","BNIP3L mRNA, set 1":0.206,"NDRG1 mRNA, set 1":0.209}
{"gene knocked down":"RASSF4 (Ras association domain family member 4)","BNIP3L mRNA, set 1":0.263,"NDRG1 mRNA, set 1":0.359}
{"gene knocked down":"HMOX2 (heme oxygenase 2)","BNIP3L mRNA, set 1":0.115,"NDRG1 mRNA, set 1":0.215}
{"gene knocked down":"GIGYF2 (GRB10 interacting GYF protein 2)","BNIP3L mRNA, set 1":0.421,"NDRG1 mRNA, set 1":1.18}
